# PubChem BioAssay AID743121, NCATS | 2013
# Aim: 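Knock-downs that sensitise breast cancer cells to camptothecin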 (primary screen)
# System: MDA-MB-231 cells, a human breast cancer line
# Reagent: single siRNA against human genes, 20 nM siRNA (0.8 pmol per well)
# Duration: 120 h (drug added 48 h after transfection, read 72 h later)
# Conditions: camptothecin 20 nM (about EC30) for 72 h; vehicle 0.1% DMSO in parallel plates
# Detection: 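Cell viability by ATP luminescence (CellTiter-Glo) as % of non-targeting siRNA wells, and the log2 ratio of viability without drug over viability with camptothecin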
# Scale: log2 vehicle/camptothecin viability: higher = stronger sensitisation to camptothecin; viability with camptothecin and viability without drug: higher = more viable cells
# Hit rule: 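Active genes have an RSA gene-level p-value below 0.001, computed from the ratios of their separate siRNAs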
# This is an unselected part of about 26,000 reagents. Over the whole deposit, 167 (0.63%) are marked active. 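Calls are per gene from RSA p-values that are not deposited; an individual active-marked siRNA can sensitise only weakly.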 Unmarked entries are inactive. The numbers tell different reagents against one gene apart. No sequences are given here.
gene symbol,reagent no.,log2 vehicle/camptothecin viability,viability with camptothecin (% of control),viability without drug (% of control)
GABBR2,1,-0.662,73.9,46.7
GABBR2,2,-0.327,134,107
GABBR2,3,-0.336,95.8,75.9
LTBP1,1,0.116,69.8,75.7
LTBP1,2,-0.301,87.8,71.2
LTBP1,3,-0.0868,86.8,81.7
LTBP1,4,-0.239,74.2,62.8
RAB27B,1,-0.205,86.4,74.9
RAB27B,2,-0.408,115,86.7
RAB27B,3,-0.133,105,95.6
RAB27B,4,-0.057,84.7,81.4
OSGEP,1,-0.0364,109,107
OSGEP,2,0.309,24.4,30.2
OSGEP,3,-0.469,60.1,43.5
OSGEP,4,-0.508,84.5,59.4
DNAJC13,1,-0.199,78,68
DNAJC13,2,-0.18,94.6,83.5
DNAJC13,3,-0.28,92.2,75.9
DNAJC13,4,-0.0128,70.8,70.1
DUT,1,-0.443,54.8,40.3
DUT,2,0.0907,62.9,67
DUT,3,-0.115,33.4,30.8
DUT,4,-0.0723,81.7,77.7
DAB2,1,-0.0625,70.2,67.3
DAB2,2,0.0207,94.1,95.4
DAB2,3,-0.107,94.5,87.7
CLK2,1,-0.373,134,103
CLK2,2,0.0332,106,109
CLK2,3,-0.0693,97.3,92.7
CLK2,4,-0.543,41.9,28.7

Ordered by “log2 vehicle/camptothecin viability” (high to low): 10 of the entries above.
gene symbol,reagent no.,log2 vehicle/camptothecin viability,viability with camptothecin (% of control),viability without drug (% of control)
LTBP1,1,0.116,69.8,75.7
OSGEP,1,-0.0364,109,107
RAB27B,4,-0.057,84.7,81.4
LTBP1,3,-0.0868,86.8,81.7
RAB27B,3,-0.133,105,95.6
RAB27B,1,-0.205,86.4,74.9
LTBP1,4,-0.239,74.2,62.8
LTBP1,2,-0.301,87.8,71.2
GABBR2,3,-0.336,95.8,75.9
RAB27B,2,-0.408,115,86.7

The list goes on.
gene symbol,reagent no.,log2 vehicle/camptothecin viability,viability with camptothecin (% of control),viability without drug (% of control)
PICK1,1,-0.511,113,79.4
PICK1,2,-0.6,104,68.5
PICK1,3,-0.155,113,102
PICK1,4,-0.232,117,99.3
ATXN3,1,-0.389,65.2,49.8
ATXN3,2,-0.184,84,73.9
ATXN3,3,0.676,12.9,20.6
ATXN3,4,-0.192,111,97.1
TMX3,1,-0.232,130,110
TMX3,2,0.042,66.2,68.2
TMX3,3,0.0538,92.5,96
TMX3,4,0.0733,78.9,83.1
KCNK12,1,-0.0996,88.9,83
KCNK12,2,-0.314,48.5,39
KCNK12,3,0.206,90.5,104
KCNK12,4,0.491,32.3,45.3
PLCL1,1,0.286,44,53.7
PLCL1,2,-0.275,124,102
PLCL1,3,-0.222,122,105
PLCL1,4,-0.303,111,90.2
SRPRB,1,-0.216,85.7,73.8
SRPRB,2,-0.53,88.4,61.3
SRPRB,3,0.26,27.9,33.4
SRPRB,4,-0.244,127,107
PAK5,1,-0.0355,98.8,96.4
PAK5,2,-0.669,60.2,37.8
PAK5,3,-0.158,74.6,66.9
PAK5,4,0.308,17.2,21.2
SMN1,1,-0.289,73.3,60
SMN1,2,-0.0183,36.1,35.6
SMN1,3,-0.498,92.8,65.7
SMN1,4,-0.239,67,56.8
PAX9,1,0.343,51,64.7
PAX9,2,-0.289,124,102
PAX9,3,-0.0728,83.2,79.1
SFXN5,1,0.0458,90.8,93.7
SFXN5,2,0.13,94.4,103
SFXN5,3,0.274,29.5,35.7
SFXN5,4,0.896,10.9,20.3
